Converted amounts (≈) assume the structure as drawn. Structures were worked out from names or drawings and are uncertain.
Legend:
Human KCNQ2/3 channel = Human KCNQ2/3 channel (Homo sapiens (Human), UniProt O43525+O43526); test: Opening action with respect to KCNQ2/3 channel by depolarization stimulation (thallium influx, FLIPR); settings: read-out: KCNQ2/3 ECrtg50; concentration giving 50% of maximum reaction of retigabine (10 μM); human KCNQ2/3 expression CHO-DHFR- cells; 5 mM potassium and 0.5 mM thallium
[1] = tested on: urinary bladder extracted from rat; test: Relaxing action on urinary bladder extracted from rat (rat Magnus test); settings: read-out: Rat Magnus test IC20; concentration at which tension change rate is -20%; carbachol 1 μM-induced contraction of rat urinary bladder strips
[2] = Solubility test (DMSO precipitation method, Pharmacopoeia of Japan elution test second solution); settings: Pharmacopoeia of Japan elution test second solution pH=6.8, room temperature, five hours; quantitation range 5 to 100 μM
hERG channel = hERG channel (Homo sapiens (Human), UniProt Q12809); test: Evaluation of action on hERG IKr current (patch-clamp); assay type: cell-based; settings: read-out: IC50 (50% inhibitory activity of hERG channel); HEK293 cell overexpressing hERG, maximum tail current, 10 minutes after application

Protein sequences, listed by entry. Tags and fused reporters are not part of them.
UniProt O43525, whole entry: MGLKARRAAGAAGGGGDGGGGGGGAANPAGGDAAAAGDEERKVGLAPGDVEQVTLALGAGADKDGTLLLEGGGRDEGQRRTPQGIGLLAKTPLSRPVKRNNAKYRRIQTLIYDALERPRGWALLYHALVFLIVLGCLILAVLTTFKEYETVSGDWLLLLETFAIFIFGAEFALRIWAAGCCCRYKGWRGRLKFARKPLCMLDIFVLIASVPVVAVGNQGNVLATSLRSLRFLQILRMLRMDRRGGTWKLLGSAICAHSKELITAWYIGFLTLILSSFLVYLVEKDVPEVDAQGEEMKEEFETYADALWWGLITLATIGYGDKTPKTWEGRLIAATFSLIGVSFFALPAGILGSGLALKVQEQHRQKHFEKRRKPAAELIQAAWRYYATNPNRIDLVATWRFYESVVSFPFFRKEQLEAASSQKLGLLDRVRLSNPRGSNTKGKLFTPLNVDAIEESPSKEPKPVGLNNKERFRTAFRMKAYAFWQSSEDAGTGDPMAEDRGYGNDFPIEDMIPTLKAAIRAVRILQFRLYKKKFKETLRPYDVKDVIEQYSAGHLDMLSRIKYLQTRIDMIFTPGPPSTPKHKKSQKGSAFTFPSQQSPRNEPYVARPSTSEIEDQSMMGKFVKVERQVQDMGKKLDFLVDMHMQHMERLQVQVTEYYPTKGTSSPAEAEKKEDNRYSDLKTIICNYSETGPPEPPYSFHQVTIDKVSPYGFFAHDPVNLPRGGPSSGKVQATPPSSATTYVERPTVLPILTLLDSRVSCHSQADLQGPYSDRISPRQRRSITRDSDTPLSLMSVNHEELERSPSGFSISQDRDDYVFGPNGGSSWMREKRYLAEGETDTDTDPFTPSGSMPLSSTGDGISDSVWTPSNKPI
UniProt O43526, whole entry: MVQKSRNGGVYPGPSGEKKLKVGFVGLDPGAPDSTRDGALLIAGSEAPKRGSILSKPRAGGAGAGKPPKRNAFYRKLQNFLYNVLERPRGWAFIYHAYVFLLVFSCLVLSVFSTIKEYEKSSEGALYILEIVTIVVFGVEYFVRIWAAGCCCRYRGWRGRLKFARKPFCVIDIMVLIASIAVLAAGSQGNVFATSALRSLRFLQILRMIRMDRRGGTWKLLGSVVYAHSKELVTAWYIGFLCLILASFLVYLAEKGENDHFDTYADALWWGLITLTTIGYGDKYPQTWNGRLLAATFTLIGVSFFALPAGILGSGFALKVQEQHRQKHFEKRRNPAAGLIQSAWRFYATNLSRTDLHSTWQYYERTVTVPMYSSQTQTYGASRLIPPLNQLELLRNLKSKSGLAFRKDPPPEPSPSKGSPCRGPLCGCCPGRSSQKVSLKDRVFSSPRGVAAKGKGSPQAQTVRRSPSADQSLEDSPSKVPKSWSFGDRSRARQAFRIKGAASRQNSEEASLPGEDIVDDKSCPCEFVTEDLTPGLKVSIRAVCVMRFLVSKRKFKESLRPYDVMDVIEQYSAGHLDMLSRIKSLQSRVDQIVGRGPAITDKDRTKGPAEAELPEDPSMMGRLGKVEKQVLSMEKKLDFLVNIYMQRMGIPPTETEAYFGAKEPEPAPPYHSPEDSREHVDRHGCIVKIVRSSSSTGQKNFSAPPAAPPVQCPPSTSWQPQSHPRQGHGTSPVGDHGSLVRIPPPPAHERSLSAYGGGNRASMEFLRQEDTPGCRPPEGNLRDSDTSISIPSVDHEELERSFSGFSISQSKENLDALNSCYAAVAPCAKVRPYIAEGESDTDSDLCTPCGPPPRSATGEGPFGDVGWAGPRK
UniProt Q12809, whole entry: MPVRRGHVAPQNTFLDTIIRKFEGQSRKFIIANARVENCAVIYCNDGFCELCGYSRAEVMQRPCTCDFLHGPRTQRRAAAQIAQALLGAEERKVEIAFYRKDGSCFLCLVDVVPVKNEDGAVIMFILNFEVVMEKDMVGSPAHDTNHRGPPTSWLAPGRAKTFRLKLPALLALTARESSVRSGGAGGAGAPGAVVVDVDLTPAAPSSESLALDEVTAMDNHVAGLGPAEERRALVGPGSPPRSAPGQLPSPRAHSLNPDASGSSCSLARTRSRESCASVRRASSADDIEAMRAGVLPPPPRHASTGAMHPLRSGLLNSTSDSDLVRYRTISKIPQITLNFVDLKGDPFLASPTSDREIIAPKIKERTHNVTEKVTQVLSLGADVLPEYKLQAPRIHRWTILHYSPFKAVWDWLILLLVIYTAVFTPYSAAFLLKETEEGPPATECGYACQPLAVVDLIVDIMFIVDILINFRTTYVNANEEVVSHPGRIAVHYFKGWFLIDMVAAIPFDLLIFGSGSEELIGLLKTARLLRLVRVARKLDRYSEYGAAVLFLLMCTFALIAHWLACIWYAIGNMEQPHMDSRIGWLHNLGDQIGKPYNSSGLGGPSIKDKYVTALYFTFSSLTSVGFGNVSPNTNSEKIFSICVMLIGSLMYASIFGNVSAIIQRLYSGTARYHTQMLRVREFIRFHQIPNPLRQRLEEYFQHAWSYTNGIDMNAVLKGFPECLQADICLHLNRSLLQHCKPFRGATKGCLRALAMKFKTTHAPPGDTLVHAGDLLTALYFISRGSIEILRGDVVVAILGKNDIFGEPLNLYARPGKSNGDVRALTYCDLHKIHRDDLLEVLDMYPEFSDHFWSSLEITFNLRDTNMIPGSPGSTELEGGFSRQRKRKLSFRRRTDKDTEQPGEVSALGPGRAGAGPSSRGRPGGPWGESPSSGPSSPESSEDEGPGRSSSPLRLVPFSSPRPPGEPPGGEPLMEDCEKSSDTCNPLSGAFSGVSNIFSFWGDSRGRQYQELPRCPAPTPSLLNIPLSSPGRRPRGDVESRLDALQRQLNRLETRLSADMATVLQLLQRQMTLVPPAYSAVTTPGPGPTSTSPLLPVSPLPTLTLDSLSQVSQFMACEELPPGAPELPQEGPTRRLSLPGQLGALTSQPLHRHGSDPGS

## C[C@@](O)(c1cc(Cl)c(NC(=O)NCc2ccc(Cl)cn2)c(Cl)c1)C(F)(F)F
Human KCNQ2/3 channel
  EC50: 800 nM
[1]
  IC20: 300 nM
[2]
  Solubility: 91 µM (≈ 40.3 µg/mL)
hERG channel
  IC50: > 10000 nM

— patent US10676438B2, “KCNQ2-5 channel activator” (Ono Pharmaceutical Co., Ltd., priority 2014, dated 2020)
